Reference: PMC10224228
These are yes or no findings as the source states them, for the method shown. In cells and extracts the contact can be indirect. Some results given as binding are weak or reduced against the parent protein; the word gives no strength. For some assays here: Sequences can lack the tags named with a protein.

Protein sequences, listed by entry. Tags and fused reporters are not part of them.
UniProt Q9HC77: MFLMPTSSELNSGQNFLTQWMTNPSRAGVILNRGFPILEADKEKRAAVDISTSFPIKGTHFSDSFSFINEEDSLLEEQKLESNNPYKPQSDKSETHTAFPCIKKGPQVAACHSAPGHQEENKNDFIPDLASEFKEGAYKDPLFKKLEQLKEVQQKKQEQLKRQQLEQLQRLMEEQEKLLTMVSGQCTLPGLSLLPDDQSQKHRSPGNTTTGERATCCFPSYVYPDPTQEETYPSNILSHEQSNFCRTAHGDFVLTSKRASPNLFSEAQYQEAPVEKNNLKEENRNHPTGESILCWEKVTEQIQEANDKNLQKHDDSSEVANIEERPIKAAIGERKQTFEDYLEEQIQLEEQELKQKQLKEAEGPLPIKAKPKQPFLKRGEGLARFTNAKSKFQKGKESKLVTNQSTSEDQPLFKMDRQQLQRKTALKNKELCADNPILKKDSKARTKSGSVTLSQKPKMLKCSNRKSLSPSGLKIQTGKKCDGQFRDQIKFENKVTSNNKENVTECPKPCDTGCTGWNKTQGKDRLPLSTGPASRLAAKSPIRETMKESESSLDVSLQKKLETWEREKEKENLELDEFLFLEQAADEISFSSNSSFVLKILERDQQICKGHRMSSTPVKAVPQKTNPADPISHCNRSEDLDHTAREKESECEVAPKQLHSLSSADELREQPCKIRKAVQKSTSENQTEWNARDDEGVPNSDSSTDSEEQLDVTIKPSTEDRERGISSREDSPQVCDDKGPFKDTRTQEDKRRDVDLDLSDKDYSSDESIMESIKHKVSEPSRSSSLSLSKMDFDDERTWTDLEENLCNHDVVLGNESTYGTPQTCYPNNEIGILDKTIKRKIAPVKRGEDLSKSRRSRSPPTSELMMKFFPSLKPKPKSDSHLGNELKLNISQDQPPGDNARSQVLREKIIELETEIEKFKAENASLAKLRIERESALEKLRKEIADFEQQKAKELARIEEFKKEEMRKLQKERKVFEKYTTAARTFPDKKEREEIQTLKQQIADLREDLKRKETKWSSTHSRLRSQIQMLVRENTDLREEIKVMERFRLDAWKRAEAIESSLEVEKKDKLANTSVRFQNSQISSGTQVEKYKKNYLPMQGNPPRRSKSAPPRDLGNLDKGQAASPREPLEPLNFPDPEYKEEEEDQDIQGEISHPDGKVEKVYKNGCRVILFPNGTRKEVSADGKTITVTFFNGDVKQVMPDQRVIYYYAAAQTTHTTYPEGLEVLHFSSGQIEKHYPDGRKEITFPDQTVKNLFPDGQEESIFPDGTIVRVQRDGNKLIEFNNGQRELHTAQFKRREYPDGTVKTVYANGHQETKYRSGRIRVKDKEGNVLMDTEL

Tests used:
[1] = molecular target: CPAP (Centrosomal-P4.1-associated protein, Centromere protein J (CENPJ)), endogenous (human (endogenous in HeLa and in hiPSC-derived brain organoids)) (UniProt Q9HC77); assay: co-IP; endogenous proteins; Protein G beads coated with mouse monoclonal anti-CPAP antibody, mixed with high-speed HeLa cell extracts, 4 °C for 4 h; washes incl. high-salt buffer with 500 mM salt; Western blot
[2] = molecular target: CPAP-GFP (UniProt Q9HC77); assay: co-IP; GFP-Trap pull-down of CPAP-GFP from lysates of doxycycline-induced hTERT-RPE1-DOX-CPAP-GFP cells (normal serum) transiently transfected with V5 constructs; 10 mM Tris/Cl pH 7.5, 150 mM NaCl, 0.5 mM EDTA, 0.5% NP-40; anti-V5 blot
[3] = molecular target: CPAP (Centrosomal-P4.1-associated protein, Centromere protein J (CENPJ)), endogenous (human (endogenous in HeLa and in hiPSC-derived brain organoids)) (UniProt Q9HC77); assay: co-IP; endogenous proteins; lysate of 15 day old hiPSC-derived brain organoids (2500 µg total protein), overnight at 4 °C with protein G Dynabeads coupled to CPAP or DYX1C1 antibody; washes with 150 mM NaCl; Western blot

| Binder | binding [1] | binding [2] | binding [3] |
| --- | --- | --- | --- |
| DCDC2, endogenous (protein, UniProt Q9UHG0 1-476) MSGSSARSSHLSQPVVKSVLVYRNGDPFYAGRRVVIHEKKVSSFEVFLKEVTGGVQAPFGAVRNIYTPRTGHRIRKLDQIQSGGNYVAGGQEAFKKLNYLDIGEIKKRPMEVVNTEVKPVIHSRINVSARFRKPLQEPCTIFLIANGDLINPASRLLIPRKTLNQWDHVLQMVTEKITLRSGAVHRLYTLEGKLVESGAELENGQFYVAVGRDKFKKLPYSELLFDKSTMRRPFGQKASSLPPIVGSRKSKGSGNDRHSKSTVGSSDNSSPQPLKRKGKKEDVNSEKLTKLKQNVKLKNSQETIPNSDEGIFKAGAERSETRGAAEVQEDEDTQVEVPVDQRPAEIVDEEEDGEKANKDAEQKEDFSGMNGDLEEEGGREATDAPEQVEEILDHSEQQARPARVNGGTDEENGEELQQVNNELQLVLDKERKSQGAGSGQDEADVDPQRPPRPEVKITSPEENENNQQNKDYAAVA | binds | – | – |
| DCDC2-V5 (protein, UniProt Q9UHG0 1-476) MSGSSARSSHLSQPVVKSVLVYRNGDPFYAGRRVVIHEKKVSSFEVFLKEVTGGVQAPFGAVRNIYTPRTGHRIRKLDQIQSGGNYVAGGQEAFKKLNYLDIGEIKKRPMEVVNTEVKPVIHSRINVSARFRKPLQEPCTIFLIANGDLINPASRLLIPRKTLNQWDHVLQMVTEKITLRSGAVHRLYTLEGKLVESGAELENGQFYVAVGRDKFKKLPYSELLFDKSTMRRPFGQKASSLPPIVGSRKSKGSGNDRHSKSTVGSSDNSSPQPLKRKGKKEDVNSEKLTKLKQNVKLKNSQETIPNSDEGIFKAGAERSETRGAAEVQEDEDTQVEVPVDQRPAEIVDEEEDGEKANKDAEQKEDFSGMNGDLEEEGGREATDAPEQVEEILDHSEQQARPARVNGGTDEENGEELQQVNNELQLVLDKERKSQGAGSGQDEADVDPQRPPRPEVKITSPEENENNQQNKDYAAVA | – | binds | – |

The next lines start with the values.

| binding [1] | binding [2] | binding [3] | Binder |
| --- | --- | --- | --- |
| binds | – | binds | DYX1C1 (DNAAF4), endogenous (protein, UniProt Q8WXU2 1-420) MPLQVSDYSWQQTKTAVFLSLPLKGVCVRDTDVFCTENYLKVNFPPFLFEAFLYAPIDDESSKAKIGNDTIVFTLYKKEAAMWETLSVTGVDKEMMQRIREKSILQAQERAKEATEAKAAAKREDQKYALSVMMKIEEEERKKIEDMKENERIKATKALEAWKEYQRKAEEQKKIQREEKLCQKEKQIKEERKKIKYKSLTRNLASRNLAPKGRNSENIFTEKLKEDSIPAPRSVGSIKINFTPRVFPTALRESQVAEEEEWLHKQAEARRAMNTDIAELCDLKEEEKNPEWLKDKGNKLFATENYLAAINAYNLAIRLNNKMPLLYLNRAACHLKLKNLHKAIEDSSKALELLMPPVTDNANARMKAHVRRGTAFCQLELYVEGLQDYEAALKIDPSNKIVQIDAEKIRNVIQGTELKS |
| – | binds | – | DYX1C1-V5 (protein, UniProt Q8WXU2 1-420) MPLQVSDYSWQQTKTAVFLSLPLKGVCVRDTDVFCTENYLKVNFPPFLFEAFLYAPIDDESSKAKIGNDTIVFTLYKKEAAMWETLSVTGVDKEMMQRIREKSILQAQERAKEATEAKAAAKREDQKYALSVMMKIEEEERKKIEDMKENERIKATKALEAWKEYQRKAEEQKKIQREEKLCQKEKQIKEERKKIKYKSLTRNLASRNLAPKGRNSENIFTEKLKEDSIPAPRSVGSIKINFTPRVFPTALRESQVAEEEEWLHKQAEARRAMNTDIAELCDLKEEEKNPEWLKDKGNKLFATENYLAAINAYNLAIRLNNKMPLLYLNRAACHLKLKNLHKAIEDSSKALELLMPPVTDNANARMKAHVRRGTAFCQLELYVEGLQDYEAALKIDPSNKIVQIDAEKIRNVIQGTELKS |
